Measured values: patent EP3741361A1, “GASTRO-RESISTANT FOOD/PHARMACEUTICAL CAPSULE FOR TREATMENT OF INFLAMMATORY BOWEL DISEASES” (P&P Farma S.r.l., priority 2019, dated 2020)
At least one structure is not confirmed: it was looked up by name or label, or the drawing left a doubt.

System: Caco-2 cells
Experiment: Test of a possible proinflammatory effect of the treatments alone on the transwell Caco-2 monolayer; markers dosed by ELISA
Assay type: cell-based, human
Settings: treatment alone, no IL-1β; 0.1-10 µM (DSM 10 µM); vs negative control (CTR-), no statistically significant difference

C[C@@H]1C[C@H]2[C@@H]3CCC4=CC(=O)C=C[C@]4(C)[C@@]3(F)[C@@H](O)C[C@]2(C)[C@@]1(O)C(=O)CO [dexamethasone]
did not cause the release: release of IL-6 | release of IL-8 | release of NO
